# Results published in paper PMC10766610, “DCAF1-based PROTACs with activity against clinically validated targets overcoming intrinsic- and acquired-degrader resistance” (Nature Communications, 2024).
# System: TMD8 BTK-GFP/mCh cells
# Test: Viability by FSC/SSC gate (flow cytometry) in TMD8 BTK-GFP/mCh cells
# Assay type: cell-based, human
# Details: for V/D [GI50 Viability / DC50 Degradation]: top dose used if no DC50 or GI50; for V/D (GI50 Viability/DC50 BTK Degradation): Fig. 6b; for V/D (GI50 Viability/DC50 BTK Degradation) / V/D score, viability window GI50/DC50: 24 h; for V/D score, viability window GI50/DC50: TMD8 BTK-GFP/mCh
# Description: For flow cytometry measurements, 25,000 exponentially growing TMD8 BTK-GFP/mCh cells were plated in 100 μL of each well of a 96-well plate and grown for 24 h. Cells were then dosed with corresponding compounds and doses from 10 mM DMSO stock for 24 h, after which GFP and mCherry fluorescence was read with a Beckmann Coulter Cytoflex. For competition experiment, both compounds were added at the same time and dosed for 24 h. Cells were gated based on Forward & Side Scatter and selection for Single cells using SSC-A vs. SSC-H. Further, the population of viable cells was defined by the forward & side-scatter characteristics of DMSO-treated cells. […] Effects on viability were measured by the reduction of the percentage of cells included in this viable-population gate with increasing doses of compound tested. Degradation of BTK was calculated based on subtracting background (BG) fluorescence of parental TMD8 signal via (GFP-BG)/(mCherry-BG) of viable cells. Median ratios of three technical (different wells) replicates were used to calculate daily averages. Each compound dose–response was generated via three biological replicates (different days of experiment). Degradation curve parameters (DC50 & Abs. DC50 & max. Deg) were extracted using GraphPad Prism’s 4-parameter logistic curve fitting.
# The viability window was determined by measuring the GI50 of viability based on the percentage of cells included in the viable gate and comparing it to the DC50 of degradation. The fold-change difference describing this window is [GI50 Viability / DC50 Degradation], where values above 1 indicate a positive (lower DC50 degradation than AC50 viability) window.
Structure (SMILES),V/D [GI50 Viability / DC50 Degradation],V/D (GI50 Viability/DC50 BTK Degradation),"V/D score, viability window GI50/DC50"
"Cc1c(NC(=O)c2ccc(C(C)(C)O)cc2F)cc(F)cc1-c1ncnc2[nH]c(-c3ccc(CN4CCC5(CCNCC5)CC4)cc3)cc12 [compound 18, reference compound]",1.0,,
Cc1c(NC(=O)c2ccc(C(C)(C)O)cc2F)cc(F)cc1-c1ncnc2[nH]c(-c3ccc(CNCCOCCOCCOCCOCCOCCOCCOCCOCCOCCOCCOCCOCCC(=O)N4CCN(c5ccc6c(NCCN)nc(C7(c8ccc(Cl)cc8)CCCCC7)nc6c5)CC4)cc3)cc12 [DBt-5],84.7,84.7,
Cc1c(NC(=O)N2CC(O)(CC(C)(C)C)C2)cc(F)cc1-c1ncnc2[nH]c(-c3cnn(CC(=O)N4CCC5(CCNCC5)CC4)c3)cc12 [compound 19],1.0,,
Cc1c(NC(=O)N2CC(O)(CC(C)(C)C)C2)cc(F)cc1-c1ncnc2[nH]c(-c3cnn(CC(=O)N4CCC5(CC4)CN(CCNC(=O)CCCC(=O)N4CCN(c6ccc7c(NCCN)nc(C8(c9ccc(Cl)cc9)CCCCC8)nc7c6)CC4)CCO5)c3)cc12 [DBt-10],,> 182.6,
"CCN(CC)Cc1ccc(-c2cc3c(-c4cc(F)cc(NC(=O)c5ccc(C(C)(C)O)cc5F)c4C)ncnc3[nH]2)cc1 [compound 17, reference compound]",0.27,,0.3
Cc1nc(Nc2ncc(C(=O)Nc3c(C)cccc3Cl)s2)cc(N2CCC(OC3CCN(CCCCCCCC(=O)N4CCN(c5ccc6c(NCCN)nc(C7(c8ccc(Cl)cc8)CCCCC7)nc6c5)CC4)CC3)CC2)n1 [DDa-1],13.1,,13.1
